According to patent US10047050B2, “3,4-di-substituted pyridine compound, methods of using and compositions comprising the same” (ARDEA BIOSCIENCES, INC., priority 2011, dated 2018):
Several values for one entry are separate records, joined by “and”; a condition that tells them apart may be missing. Equal entries are not always repeated. Further values from the same series stand in other lists.

System: serum uric acid
Experiment: Multi-dose Phase I clinical trial, serum uric acid (sUA), once daily for 10 days
Type: in vivo, human
Conditions: group 8, 5 mg once daily for 10 days, individual subjects 4-10
Source text: A Phase 1, Randomized, Double-Blind, Placebo-Controlled Study to Evaluate Safety, Tolerability, Pharmacokinetics and Preliminary Food Effect of Multiple Rising Doses of a URAT1 Inhibitor, in Healthy Adult Male Volunteers.
Fasted subjects receive oral doses of active or placebo, once daily, for 10 days, at the following doses:
36 subjects in 3 dose groups, 12 subjects/group, are randomized […] to receive active (9/group) or placebo ([…]). All study procedures are the same regardless of whether subject receives active or placebo. Total duration of subject participation, including screening period, is ˜2-4 weeks, and the total volume of blood collected from each subject during the entire study <500 mL, (less than typically collected during a volunteer blood donation).
5 mg, active and placebo, tablets packaged in 35 count HDPE bottles, stored at controlled room temperature (15-30° C.). Placebo tablets are designed to match the active tablets—identical size, form, taste, and color, and containing the same excipients. 1 mg doses were administered as oral solutions.
Subjects dosed in the morning of Days 1-10 with ˜240 mL of room temp water.
Urine, serum and plasma samples collected periodically
PD samples frozen (−20° C.) and stored; all samples from a given subject assayed in a single analytical run.

Compound: CC(C)(Sc1ccncc1-c1ccc(C#N)c2ccccc12)C(=O)O [2-((3-(4-cyanonaphthalen-1-yl)pyridin-4-yl)thio)-2-methylpropanoic acid]
- % sUA change (from baseline) (Time 102): −30.2% and −36.9% and −43.1% and −36.7% and −27.6% and −44.6% and −45.5%
- Absolute sUA concentration (Time 102): 3.7 mg/dL (2×) and 4.1 mg/dL and 3.8 mg/dL and 4.2 mg/dL and 3.1 mg/dL and 3.0 mg/dL
- % sUA change (from baseline) (Time 108): −35.8% and −32.3% and −41.5% and −43.3% and −31.0% and −48.2% and −49.1%
- Absolute sUA concentration (Time 108): 3.4 mg/dL (2×) and 4.4 mg/dL and 3.8 mg/dL and 4.0 mg/dL and 2.9 mg/dL and 2.8 mg/dL
- % sUA change (from baseline) (Time 120): −30.2% and −24.6% and −32.3% and −28.3% and −20.7% and −30.4% and −43.6%
- Absolute sUA concentration (Time 120): 3.7 mg/dL and 4.9 mg/dL and 4.4 mg/dL and 4.3 mg/dL and 4.6 mg/dL and 3.9 mg/dL and 3.1 mg/dL
- % sUA change (from baseline) (Time 144): −37.7% and −32.3% and −38.5% and −38.3% and −24.1% and −35.7% and −40.0%
- Absolute sUA concentration (Time 144): 3.3 mg/dL (2×) and 4.4 mg/dL (2×) and 4.0 mg/dL and 3.7 mg/dL and 3.6 mg/dL
- % sUA change (from baseline) (Time 168): −45.3% and −36.9% and −44.6% and −38.3% and −24.1% and −37.5% and −40.0%
- Absolute sUA concentration (Time 168): 2.9 mg/dL and 4.1 mg/dL and 3.6 mg/dL and 3.7 mg/dL and 4.4 mg/dL and 3.5 mg/dL and 3.3 mg/dL
- % sUA change (from baseline) (Time 192): −39.6% and −32.3% and −41.5% and −40.0% and −17.2% and −35.7% and −43.6%
- Absolute sUA concentration (Time 192): 3.2 mg/dL and 4.4 mg/dL and 3.8 mg/dL and 3.6 mg/dL (2×) and 4.8 mg/dL and 3.1 mg/dL
- % sUA change (from baseline) (Time 216): −43.4% and −32.3% (2×) and −35.0% and −24.1% and −41.1% and −25.5%
- Absolute sUA concentration (Time 216): 3.0 mg/dL and 4.4 mg/dL (3×) and 3.9 mg/dL and 3.3 mg/dL and 4.1 mg/dL
- % sUA change (from baseline) (Time 222 (post dosing)): −41.5% and −38.5% and −40.0% and −38.3% and −32.8% and −44.6% and −41.8%
- Absolute sUA concentration (Time 222 (post dosing)): 3.1 mg/dL (2×) and 4.0 mg/dL and 3.9 mg/dL (2×) and 3.7 mg/dL and 3.2 mg/dL
- % sUA change (from baseline) (Time 228 (post dosing)): −47.2% and −36.9% and −40.0% and −43.3% and −36.2% and −44.6% and −41.8%
- Absolute sUA concentration (Time 228 (post dosing)): 2.8 mg/dL and 4.1 mg/dL and 3.9 mg/dL and 3.4 mg/dL and 3.7 mg/dL and 3.1 mg/dL and 3.2 mg/dL
- % sUA change (from baseline) (Time 240 (post dosing)): −39.6% and −27.7% and −30.8% and −33.3% and −25.9% and −26.8% and −34.5%
- Absolute sUA concentration (Time 240 (post dosing)): 3.2 mg/dL and 4.7 mg/dL and 4.5 mg/dL and 4.0 mg/dL and 4.3 mg/dL and 4.1 mg/dL and 3.6 mg/dL
- % sUA change (from baseline) (Time 246 (post dosing)): −43.4% and −32.3% and −38.5% and −36.7% and −29.3% and −30.4% and −40.0%
- Absolute sUA concentration (Time 246 (post dosing)): 3.0 mg/dL and 4.4 mg/dL and 4.0 mg/dL and 3.8 mg/dL and 4.1 mg/dL and 3.9 mg/dL and 3.3 mg/dL
- % sUA change (from baseline) (Time 252 (post dosing)): −45.3% and −35.4% and −43.1% and −45.0% and −31.0% and −32.1% and −41.8%
- Absolute sUA concentration (Time 252 (post dosing)): 2.9 mg/dL and 4.2 mg/dL and 3.7 mg/dL and 3.3 mg/dL and 4.0 mg/dL and 3.8 mg/dL and 3.2 mg/dL
- % sUA change (from baseline) (Time 264 (post dosing)): −37.7% and −32.3% and −38.5% and −33.3% and −27.6% and −26.8% and −27.3%
- Absolute sUA concentration (Time 264 (post dosing)): 3.3 mg/dL and 4.4 mg/dL and 4.0 mg/dL (3×) and 4.2 mg/dL and 4.1 mg/dL
- % sUA change (from baseline) (Time 270 (post dosing)): −22.6% and −23.1% and −32.3% and −25.0% and −13.8% and −16.1% and −27.3%
- Absolute sUA concentration (Time 270 (post dosing)): 4.1 mg/dL and 5.0 mg/dL (2×) and 4.4 mg/dL and 4.5 mg/dL and 4.7 mg/dL and 4.0 mg/dL
- % sUA change (from baseline) (Time 288 (post dosing)): −28.3% and −24.6% and −33.8% and −31.7% and −17.2% and −14.3% and −23.6%
- Absolute sUA concentration (Time 288 (post dosing)): 3.8 mg/dL and 4.9 mg/dL and 4.3 mg/dL and 4.1 mg/dL and 4.8 mg/dL (2×) and 4.2 mg/dL
- % sUA change (from baseline) (Time 312 (post dosing)): −13.2% and −13.8% and −27.7% and −18.3% and −5.2% and −7.1% and −10.9%
- Absolute sUA concentration (Time 312 (post dosing)): 4.6 mg/dL and 5.6 mg/dL and 4.7 mg/dL and 4.9 mg/dL (2×) and 5.5 mg/dL and 5.2 mg/dL
